Results published in paper PMC12700102.
Like-named read-outs stand apart in the source and are kept apart here. No constants are given. Whether binding was seen depends on the method and setting. Binding seen in cells or lysates may run through a third protein. Here binding means that the protein was enriched with, or labelled near, the bait; the list need not be complete. For some assays here: A no says only that the protein was not detected with the bait.

Sequences of proteins named here, by UniProt entry; tags and fusion partners are left off.
UniProt Q5JSZ5: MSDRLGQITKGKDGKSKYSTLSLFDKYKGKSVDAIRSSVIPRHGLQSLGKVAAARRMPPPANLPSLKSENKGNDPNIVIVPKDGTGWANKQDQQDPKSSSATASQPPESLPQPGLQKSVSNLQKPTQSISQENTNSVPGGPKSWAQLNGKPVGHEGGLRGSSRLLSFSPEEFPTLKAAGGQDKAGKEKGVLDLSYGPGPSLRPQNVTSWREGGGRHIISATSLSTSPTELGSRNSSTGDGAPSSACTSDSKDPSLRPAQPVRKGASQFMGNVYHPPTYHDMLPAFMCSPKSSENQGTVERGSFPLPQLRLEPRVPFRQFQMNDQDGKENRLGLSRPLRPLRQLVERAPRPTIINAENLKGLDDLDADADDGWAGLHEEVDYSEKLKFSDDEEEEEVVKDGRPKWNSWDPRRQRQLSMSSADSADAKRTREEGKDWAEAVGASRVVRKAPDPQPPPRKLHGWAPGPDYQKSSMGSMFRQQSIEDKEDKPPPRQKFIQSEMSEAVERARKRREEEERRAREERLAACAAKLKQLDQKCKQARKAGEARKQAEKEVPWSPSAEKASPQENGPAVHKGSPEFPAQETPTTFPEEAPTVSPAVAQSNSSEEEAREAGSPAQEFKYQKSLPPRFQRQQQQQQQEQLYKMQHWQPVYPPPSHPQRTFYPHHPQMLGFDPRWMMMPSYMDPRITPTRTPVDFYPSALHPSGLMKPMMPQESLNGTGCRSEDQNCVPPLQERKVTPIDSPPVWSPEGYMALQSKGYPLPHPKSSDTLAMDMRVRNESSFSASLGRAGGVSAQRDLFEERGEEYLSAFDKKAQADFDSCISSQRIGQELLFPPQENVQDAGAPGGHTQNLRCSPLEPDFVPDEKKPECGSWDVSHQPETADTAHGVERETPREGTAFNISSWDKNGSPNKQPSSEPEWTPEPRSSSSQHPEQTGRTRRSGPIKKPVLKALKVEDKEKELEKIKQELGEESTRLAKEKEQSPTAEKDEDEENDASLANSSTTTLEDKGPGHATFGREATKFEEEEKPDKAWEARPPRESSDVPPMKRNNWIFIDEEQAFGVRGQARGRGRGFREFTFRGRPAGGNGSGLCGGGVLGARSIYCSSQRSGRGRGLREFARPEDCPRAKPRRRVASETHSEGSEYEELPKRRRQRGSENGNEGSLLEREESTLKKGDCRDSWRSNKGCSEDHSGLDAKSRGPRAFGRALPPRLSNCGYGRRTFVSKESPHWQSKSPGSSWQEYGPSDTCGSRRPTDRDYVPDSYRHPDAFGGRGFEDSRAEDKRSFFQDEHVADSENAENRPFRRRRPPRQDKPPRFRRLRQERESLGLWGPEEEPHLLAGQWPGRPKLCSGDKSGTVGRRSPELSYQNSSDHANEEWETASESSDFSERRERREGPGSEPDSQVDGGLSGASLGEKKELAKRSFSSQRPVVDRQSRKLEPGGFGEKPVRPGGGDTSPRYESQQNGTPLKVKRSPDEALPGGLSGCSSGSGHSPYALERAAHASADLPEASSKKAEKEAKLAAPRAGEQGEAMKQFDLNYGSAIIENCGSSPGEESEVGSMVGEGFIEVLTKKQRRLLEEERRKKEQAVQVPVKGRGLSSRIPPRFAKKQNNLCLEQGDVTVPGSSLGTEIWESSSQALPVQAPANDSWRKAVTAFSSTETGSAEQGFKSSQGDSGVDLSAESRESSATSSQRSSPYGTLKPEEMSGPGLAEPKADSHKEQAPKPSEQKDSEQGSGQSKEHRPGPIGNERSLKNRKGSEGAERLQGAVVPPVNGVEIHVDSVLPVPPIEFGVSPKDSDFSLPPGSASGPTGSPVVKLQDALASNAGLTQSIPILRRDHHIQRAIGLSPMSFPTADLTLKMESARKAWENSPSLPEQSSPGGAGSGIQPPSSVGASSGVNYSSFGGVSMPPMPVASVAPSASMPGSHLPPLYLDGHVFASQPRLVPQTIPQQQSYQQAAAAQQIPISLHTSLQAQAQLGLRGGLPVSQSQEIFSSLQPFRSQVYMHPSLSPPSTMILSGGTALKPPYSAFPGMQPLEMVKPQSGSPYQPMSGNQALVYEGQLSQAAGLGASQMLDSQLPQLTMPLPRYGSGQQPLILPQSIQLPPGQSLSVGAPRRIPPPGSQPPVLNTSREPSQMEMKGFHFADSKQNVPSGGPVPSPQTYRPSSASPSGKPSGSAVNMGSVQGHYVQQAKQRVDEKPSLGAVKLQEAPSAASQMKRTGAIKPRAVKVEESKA
UniProt P11940: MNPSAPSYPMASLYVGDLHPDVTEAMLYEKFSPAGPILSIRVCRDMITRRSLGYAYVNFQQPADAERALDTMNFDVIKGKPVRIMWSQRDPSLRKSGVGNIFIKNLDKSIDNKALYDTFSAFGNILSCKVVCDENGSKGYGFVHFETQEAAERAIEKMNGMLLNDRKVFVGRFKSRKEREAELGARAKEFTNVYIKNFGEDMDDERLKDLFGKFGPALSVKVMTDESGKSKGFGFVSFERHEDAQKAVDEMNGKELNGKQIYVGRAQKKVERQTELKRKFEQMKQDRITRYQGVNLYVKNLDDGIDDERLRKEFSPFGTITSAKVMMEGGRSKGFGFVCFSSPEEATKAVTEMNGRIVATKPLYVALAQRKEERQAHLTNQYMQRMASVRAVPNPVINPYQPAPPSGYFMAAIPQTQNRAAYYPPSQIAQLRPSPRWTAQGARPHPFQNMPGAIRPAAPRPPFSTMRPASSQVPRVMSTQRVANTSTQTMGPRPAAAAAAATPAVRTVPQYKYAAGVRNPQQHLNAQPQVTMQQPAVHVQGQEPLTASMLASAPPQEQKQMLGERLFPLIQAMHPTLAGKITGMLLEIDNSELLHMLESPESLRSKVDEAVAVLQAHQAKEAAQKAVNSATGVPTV
UniProt Q92615: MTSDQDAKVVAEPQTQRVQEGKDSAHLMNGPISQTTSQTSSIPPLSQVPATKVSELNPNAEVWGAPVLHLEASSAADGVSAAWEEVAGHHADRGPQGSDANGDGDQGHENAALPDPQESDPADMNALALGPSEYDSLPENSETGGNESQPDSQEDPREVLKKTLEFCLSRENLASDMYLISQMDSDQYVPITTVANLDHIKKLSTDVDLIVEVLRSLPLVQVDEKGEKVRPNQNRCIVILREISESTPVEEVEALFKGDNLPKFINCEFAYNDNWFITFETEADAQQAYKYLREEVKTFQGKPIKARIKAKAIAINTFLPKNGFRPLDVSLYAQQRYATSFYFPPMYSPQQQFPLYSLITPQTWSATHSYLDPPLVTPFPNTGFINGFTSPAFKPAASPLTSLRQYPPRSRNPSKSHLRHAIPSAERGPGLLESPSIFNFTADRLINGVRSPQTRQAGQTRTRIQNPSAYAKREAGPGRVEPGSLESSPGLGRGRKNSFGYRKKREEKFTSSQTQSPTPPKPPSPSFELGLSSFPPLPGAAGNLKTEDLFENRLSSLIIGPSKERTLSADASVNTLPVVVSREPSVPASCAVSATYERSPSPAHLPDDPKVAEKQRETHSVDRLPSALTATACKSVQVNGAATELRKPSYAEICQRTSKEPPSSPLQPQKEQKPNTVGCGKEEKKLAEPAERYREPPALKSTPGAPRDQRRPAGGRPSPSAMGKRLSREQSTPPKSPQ
UniProt P78344: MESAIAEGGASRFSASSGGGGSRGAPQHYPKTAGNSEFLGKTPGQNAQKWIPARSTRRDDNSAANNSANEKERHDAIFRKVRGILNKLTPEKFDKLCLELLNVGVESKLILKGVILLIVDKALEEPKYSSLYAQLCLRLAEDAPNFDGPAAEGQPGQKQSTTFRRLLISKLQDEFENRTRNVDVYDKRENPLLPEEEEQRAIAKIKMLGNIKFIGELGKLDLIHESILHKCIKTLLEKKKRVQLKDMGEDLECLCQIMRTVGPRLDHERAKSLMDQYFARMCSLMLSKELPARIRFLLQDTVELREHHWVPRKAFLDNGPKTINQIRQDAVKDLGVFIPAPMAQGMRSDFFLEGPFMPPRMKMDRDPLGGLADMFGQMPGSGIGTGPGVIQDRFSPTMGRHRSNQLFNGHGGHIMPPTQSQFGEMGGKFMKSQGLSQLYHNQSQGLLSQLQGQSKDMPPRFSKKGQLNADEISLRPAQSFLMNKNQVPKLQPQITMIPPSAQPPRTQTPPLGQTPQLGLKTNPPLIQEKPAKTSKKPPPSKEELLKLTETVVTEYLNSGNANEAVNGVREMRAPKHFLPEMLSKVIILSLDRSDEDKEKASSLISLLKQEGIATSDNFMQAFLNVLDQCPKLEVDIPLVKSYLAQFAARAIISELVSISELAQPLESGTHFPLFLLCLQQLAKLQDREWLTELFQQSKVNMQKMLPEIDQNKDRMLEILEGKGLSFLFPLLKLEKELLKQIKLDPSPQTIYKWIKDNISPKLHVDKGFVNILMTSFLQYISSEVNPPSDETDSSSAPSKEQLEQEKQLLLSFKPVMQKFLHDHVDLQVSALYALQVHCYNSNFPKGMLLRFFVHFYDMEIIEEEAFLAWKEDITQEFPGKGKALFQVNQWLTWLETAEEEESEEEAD
UniProt Q99873: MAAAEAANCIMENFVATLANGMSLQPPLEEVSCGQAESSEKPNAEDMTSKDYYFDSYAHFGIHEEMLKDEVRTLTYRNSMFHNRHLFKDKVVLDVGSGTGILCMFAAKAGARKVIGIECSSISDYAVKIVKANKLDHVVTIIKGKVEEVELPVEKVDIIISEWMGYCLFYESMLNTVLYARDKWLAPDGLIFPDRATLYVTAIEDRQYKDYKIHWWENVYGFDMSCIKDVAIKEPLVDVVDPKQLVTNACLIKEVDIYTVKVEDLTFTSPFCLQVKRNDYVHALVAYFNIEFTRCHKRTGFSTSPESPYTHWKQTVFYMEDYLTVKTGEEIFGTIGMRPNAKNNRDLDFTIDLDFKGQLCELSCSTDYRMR
UniProt Q71RC2: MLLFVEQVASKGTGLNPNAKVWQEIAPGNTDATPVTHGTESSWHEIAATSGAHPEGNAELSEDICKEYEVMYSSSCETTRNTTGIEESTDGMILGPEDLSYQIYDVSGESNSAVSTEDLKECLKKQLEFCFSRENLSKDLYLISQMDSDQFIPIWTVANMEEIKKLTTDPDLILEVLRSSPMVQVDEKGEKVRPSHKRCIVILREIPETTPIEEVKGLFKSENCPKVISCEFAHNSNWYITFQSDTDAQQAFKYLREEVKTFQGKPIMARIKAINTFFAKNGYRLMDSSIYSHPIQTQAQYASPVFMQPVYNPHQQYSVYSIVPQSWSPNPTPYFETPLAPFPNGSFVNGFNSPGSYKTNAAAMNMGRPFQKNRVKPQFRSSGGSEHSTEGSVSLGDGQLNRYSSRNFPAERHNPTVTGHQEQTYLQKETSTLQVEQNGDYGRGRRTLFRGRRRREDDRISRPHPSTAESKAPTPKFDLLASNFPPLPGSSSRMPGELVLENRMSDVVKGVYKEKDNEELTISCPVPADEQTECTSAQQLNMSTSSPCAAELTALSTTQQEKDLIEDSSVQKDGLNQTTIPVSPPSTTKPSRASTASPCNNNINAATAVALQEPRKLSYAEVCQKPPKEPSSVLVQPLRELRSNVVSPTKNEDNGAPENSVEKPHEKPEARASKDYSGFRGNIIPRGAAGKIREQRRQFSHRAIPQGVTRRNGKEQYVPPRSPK
UniProt O14744: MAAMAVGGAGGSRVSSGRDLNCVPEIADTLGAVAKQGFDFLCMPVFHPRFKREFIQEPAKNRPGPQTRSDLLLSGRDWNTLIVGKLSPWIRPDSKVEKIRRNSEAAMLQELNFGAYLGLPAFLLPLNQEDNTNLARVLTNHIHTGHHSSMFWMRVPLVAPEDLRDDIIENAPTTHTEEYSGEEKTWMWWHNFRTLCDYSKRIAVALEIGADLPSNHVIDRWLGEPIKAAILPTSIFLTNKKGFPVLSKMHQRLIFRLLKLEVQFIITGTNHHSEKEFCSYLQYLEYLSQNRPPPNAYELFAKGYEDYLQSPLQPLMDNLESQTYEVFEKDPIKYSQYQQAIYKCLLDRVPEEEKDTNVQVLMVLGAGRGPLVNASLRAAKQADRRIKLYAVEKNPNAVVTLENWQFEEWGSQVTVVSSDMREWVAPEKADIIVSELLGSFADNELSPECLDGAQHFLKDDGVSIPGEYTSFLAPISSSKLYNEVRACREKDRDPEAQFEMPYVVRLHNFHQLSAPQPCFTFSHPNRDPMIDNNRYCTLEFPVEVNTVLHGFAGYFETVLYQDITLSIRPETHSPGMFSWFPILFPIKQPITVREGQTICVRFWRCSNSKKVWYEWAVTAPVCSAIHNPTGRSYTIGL

Key:
Assay in all cases: affinity purification with mass spectrometry; HA-tagged PRRC2B isoform or HA-mCherry control transfected 24 h in HEK 293T; lysis in buffer B (20 mM HEPES-KOH pH 7.6, 100 mM KCl, 0.5 mM EDTA, 0.4% NP-40, 20% glycerol); anti-HA beads 2 h at 4°C; eluates by LC-MS; hits: at least 2 peptides, >2-fold over mCherry IP, FDR < 0.05
[1] = biological target: PRRC2B-long (PRRC2BL), HA-tagged (human) (UniProt Q5JSZ5)
[2] = biological target: PRRC2B-long (PRRC2BL), HA-tagged (human) (UniProt Q5JSZ5); remark: listed apart in the source
[3] = biological target: PRRC2B-short (PRRC2BS), HA-tagged (human)

binding [1]	binding [2]	binding [3]	Molecule
binds			PABPC1 (from UniProt P11940 1-636)
binds			LARP4B (from UniProt Q92615 1-738)
binds			EIF4G2 (from UniProt P78344 1-907)
binds			G3BP1 (from UniProt Q13283 1-466)
binds			PRMT1 (from UniProt Q99873 1-371) (enzyme)
binds			LARP4 (from UniProt Q71RC2 1-724)
binds			PRMT5 (from UniProt O14744 1-637) (enzyme)
	binds	binds	DHX29 (enzyme, UniProt Q7Z478 1-1369) MGGKNKKHKAPAAAVVRAAVSASRAKSAEAGIAGEAQSKKPVSRPATAAAAAAGSREPRVKQGPKIYSFNSTNDSSGPANLDKSILKVVINNKLEQRIIGVINEHKKQNNDKGMISGRLTAKKLQDLYMALQAFSFKTKDIEDAMTNTLLYGGDLHSALDWLCLNLSDDALPEGFSQEFEEQQPKSRPKFQSPQIQATISPPLQPKTKTYEEDPKSKPKKEEKNMEVNMKEWILRYAEQQNEEEKNENSKSLEEEEKFDPNERYLHLAAKLLDAKEQAATFKLEKNKQGQKEAQEKIRKFQREMETLEDHPVFNPAMKISHQQNERKKPPVATEGESALNFNLFEKSAAATEEEKDKKKEPHDVRNFDYTARSWTGKSPKQFLIDWVRKNLPKSPNPSFEKVPVGRYWKCRVRVIKSEDDVLVVCPTILTEDGMQAQHLGATLALYRLVKGQSVHQLLPPTYRDVWLEWSDAEKKREELNKMETNKPRDLFIAKLLNKLKQQQQQQQQHSENKRENSEDPEESWENLVSDEDFSALSLESANVEDLEPVRNLFRKLQSTPKYQKLLKERQQLPVFKHRDSIVETLKRHRVVVVAGETGSGKSTQVPHFLLEDLLLNEWEASKCNIVCTQPRRISAVSLANRVCDELGCENGPGGRNSLCGYQIRMESRACESTRLLYCTTGVLLRKLQEDGLLSNVSHVIVDEVHERSVQSDFLLIILKEILQKRSDLHLILMSATVDSEKFSTYFTHCPILRISGRSYPVEVFHLEDIIEETGFVLEKDSEYCQKFLEEEEEVTINVTSKAGGIKKYQEYIPVQTGAHADLNPFYQKYSSRTQHAILYMNPHKINLDLILELLAYLDKSPQFRNIEGAVLIFLPGLAHIQQLYDLLSNDRRFYSERYKVIALHSILSTQDQAAAFTLPPPGVRKIVLATNIAETGITIPDVVFVIDTGRTKENKYHESSQMSSLVETFVSKASALQRQGRAGRVRDGFCFRMYTRERFEGFMDYSVPEILRVPLEELCLHIMKCNLGSPEDFLSKALDPPQLQVISNAMNLLRKIGACELNEPKLTPLGQHLAALPVNVKIGKMLIFGAIFGCLDPVATLAAVMTEKSPFTTPIGRKDEADLAKSALAMADSDHLTIYNAYLGWKKARQEGGYRSEITYCRRNFLNRTSLLTLEDVKQELIKLVKAAGFSSSTTSTSWEGNRASQTLSFQEIALLKAVLVAGLYDNVGKIIYTKSVDVTEKLACIVETAQGKAQVHPSSVNRDLQTHGWLLYQEKIRYARVYLRETTLITPFPVLLFGGDIEVQHRERLLSIDGWIYFQAPVKIAVIFKQLRVLIDSVLRKKLENPKMSLENDKILQIITELIKTENN
	binds	no binding	G3BP2 (protein, UniProt Q9UN86 1-482) MVMEKPSPLLVGREFVRQYYTLLNKAPEYLHRFYGRNSSYVHGGVDASGKPQEAVYGQNDIHHKVLSLNFSECHTKIRHVDAHATLSDGVVVQVMGLLSNSGQPERKFMQTFVLAPEGSVPNKFYVHNDMFRYEDEVFGDSEPELDEESEDEVEEEQEERQPSPEPVQENANSGYYEAHPVTNGIEEPLEESSHEPEPEPESETKTEELKPQVEEKNLEELEEKSTTPPPAEPVSLPQEPPKAFSWASVTSKNLPPSGTVSSSGIPPHVKAPVSQPRVEAKPEVQSQPPRVREQRPRERPGFPPRGPRPGRGDMEQNDSDNRRIIRYPDSHQLFVGNLPHDIDENELKEFFMSFGNVVELRINTKGVGGKLPNFGFVVFDDSEPVQRILIAKPIMFRGEVRLNVEEKKTRAARERETRGGGDDRRDIRRNDRGPGGPRGIVGGGMMRDRDGRGPPPRGGMAQKLGSGRGTGQMEGRFTGQRR
